# Results reported in article PMC5996148.
# Chains of the proteins cited; added tags and fusions are not shown. Lines headed by an entry give the natural chain unless they say otherwise; changes in a name come on top.
# UniProt Q96JL9: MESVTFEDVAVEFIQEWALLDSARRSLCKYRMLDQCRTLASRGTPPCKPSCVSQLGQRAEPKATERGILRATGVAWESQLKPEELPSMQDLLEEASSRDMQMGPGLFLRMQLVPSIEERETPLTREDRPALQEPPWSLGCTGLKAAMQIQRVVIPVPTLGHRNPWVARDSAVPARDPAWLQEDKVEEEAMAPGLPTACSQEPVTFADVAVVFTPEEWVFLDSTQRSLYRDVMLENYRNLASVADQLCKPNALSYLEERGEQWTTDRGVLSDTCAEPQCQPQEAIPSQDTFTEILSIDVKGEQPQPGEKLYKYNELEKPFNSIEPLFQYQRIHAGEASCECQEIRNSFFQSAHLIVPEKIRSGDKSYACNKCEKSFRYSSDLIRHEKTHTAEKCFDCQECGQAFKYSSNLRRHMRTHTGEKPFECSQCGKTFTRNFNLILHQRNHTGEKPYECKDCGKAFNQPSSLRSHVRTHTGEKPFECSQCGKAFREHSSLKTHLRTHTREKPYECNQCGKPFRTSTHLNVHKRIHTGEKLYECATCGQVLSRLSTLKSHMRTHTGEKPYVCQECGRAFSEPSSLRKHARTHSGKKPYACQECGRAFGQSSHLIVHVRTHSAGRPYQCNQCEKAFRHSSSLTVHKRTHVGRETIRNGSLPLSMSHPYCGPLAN
# UniProt Q8TF39: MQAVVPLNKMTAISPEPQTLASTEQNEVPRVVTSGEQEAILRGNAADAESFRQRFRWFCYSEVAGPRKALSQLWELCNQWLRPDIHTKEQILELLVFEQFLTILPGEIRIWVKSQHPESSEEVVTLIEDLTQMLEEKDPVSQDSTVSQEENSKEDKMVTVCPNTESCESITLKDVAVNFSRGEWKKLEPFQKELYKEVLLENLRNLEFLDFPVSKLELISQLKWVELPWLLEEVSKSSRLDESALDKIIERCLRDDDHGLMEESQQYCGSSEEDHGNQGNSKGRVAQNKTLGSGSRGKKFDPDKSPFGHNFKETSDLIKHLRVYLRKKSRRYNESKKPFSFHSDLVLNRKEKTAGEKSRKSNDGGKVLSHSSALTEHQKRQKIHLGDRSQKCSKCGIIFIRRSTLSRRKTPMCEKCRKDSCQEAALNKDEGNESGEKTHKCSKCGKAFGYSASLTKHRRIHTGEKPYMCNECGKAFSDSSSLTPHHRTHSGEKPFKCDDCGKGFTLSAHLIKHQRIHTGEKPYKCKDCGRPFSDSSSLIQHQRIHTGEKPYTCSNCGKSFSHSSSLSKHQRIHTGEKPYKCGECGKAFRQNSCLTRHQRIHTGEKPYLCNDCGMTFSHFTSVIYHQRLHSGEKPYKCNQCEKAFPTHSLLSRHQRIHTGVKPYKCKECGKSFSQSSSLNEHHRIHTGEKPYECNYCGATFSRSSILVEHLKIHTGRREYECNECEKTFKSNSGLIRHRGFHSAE
# This is one part of the list. For some assays here: The exact form of the protein is not confirmed.
# Tests used:
# Assay in all cases: protein microarray (ProtoArray v5.0), streptavidin-Alexa Fluor 647
# Conditions in all cases: 3'-biotin; 20 mM Tris (pH 7.5), 5 mM MgCl2, 100 mM KCl, 0.1% Tween-20, A/T-rich and random oligonucleotide blockers; temperature not stated; high values mean tight binding
# [1] = test system: ZBTB25 (human)
# [2] = test system: ZBTB8OS (human)
# [3] = biological target: T1, ZC3H3 (UniProt Q8IXZ2)
# T1 sequence: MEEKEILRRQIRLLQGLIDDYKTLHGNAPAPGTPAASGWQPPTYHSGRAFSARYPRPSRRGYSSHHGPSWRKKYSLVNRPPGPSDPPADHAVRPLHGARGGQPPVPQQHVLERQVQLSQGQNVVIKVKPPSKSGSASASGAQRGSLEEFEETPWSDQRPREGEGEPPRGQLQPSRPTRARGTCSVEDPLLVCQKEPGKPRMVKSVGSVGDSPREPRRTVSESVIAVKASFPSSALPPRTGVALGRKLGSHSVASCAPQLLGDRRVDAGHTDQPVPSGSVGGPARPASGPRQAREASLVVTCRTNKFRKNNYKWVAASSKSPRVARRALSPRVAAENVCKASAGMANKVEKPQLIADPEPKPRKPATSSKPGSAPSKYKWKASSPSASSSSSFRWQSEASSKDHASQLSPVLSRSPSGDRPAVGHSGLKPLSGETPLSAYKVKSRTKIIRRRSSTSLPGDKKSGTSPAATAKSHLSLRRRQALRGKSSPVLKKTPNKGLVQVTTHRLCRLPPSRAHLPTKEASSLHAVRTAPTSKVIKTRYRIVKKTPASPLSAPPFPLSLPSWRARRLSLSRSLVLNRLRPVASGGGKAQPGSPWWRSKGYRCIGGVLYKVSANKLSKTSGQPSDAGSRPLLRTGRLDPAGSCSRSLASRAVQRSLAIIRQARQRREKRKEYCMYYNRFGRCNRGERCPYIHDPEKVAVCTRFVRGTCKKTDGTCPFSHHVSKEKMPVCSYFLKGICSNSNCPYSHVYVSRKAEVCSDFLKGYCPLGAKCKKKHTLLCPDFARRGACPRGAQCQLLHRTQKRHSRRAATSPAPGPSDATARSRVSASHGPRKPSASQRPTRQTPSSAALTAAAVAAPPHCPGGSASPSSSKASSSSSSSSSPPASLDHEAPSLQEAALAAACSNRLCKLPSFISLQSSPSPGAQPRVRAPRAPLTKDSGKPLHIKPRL
# [4] = test system: ZMYM5 (human)
# [5] = test system: ZMYM6 (human)
# [6] = test system: ZNF3 (human)
# [7] = biological target: ZNF333 (UniProt Q96JL9)
# [8] = biological target: ZNF483 (UniProt Q8TF39)
# [9] = test system: ZNF616 (human)
# [10] = test system: ZNF695 (human)
# [11] = test system: ZNF718 (human)
# [12] = test system: ZNF765 (human)
# [13] = biological target: T2, ZRF1 (UniProt Q99543)
# T2 sequence: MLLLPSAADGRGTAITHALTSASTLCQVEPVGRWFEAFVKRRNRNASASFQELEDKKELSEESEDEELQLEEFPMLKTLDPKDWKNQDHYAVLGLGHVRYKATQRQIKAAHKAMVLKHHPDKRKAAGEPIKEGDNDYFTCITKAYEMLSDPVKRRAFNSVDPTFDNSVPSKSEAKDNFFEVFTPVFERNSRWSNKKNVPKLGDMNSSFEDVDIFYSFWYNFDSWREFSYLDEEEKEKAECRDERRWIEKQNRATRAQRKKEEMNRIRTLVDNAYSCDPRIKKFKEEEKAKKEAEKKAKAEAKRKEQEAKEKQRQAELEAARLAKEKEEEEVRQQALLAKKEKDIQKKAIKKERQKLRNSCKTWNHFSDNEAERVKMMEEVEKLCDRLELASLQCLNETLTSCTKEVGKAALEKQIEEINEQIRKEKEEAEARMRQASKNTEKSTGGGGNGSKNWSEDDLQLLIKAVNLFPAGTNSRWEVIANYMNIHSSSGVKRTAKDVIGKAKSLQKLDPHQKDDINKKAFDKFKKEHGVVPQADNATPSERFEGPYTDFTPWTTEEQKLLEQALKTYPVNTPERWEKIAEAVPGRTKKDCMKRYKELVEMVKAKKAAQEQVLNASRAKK
# [14] = test system: ZSCAN18 (human)
# [15] = biological target: T3, ZWINT (UniProt O95229)
# T3 sequence: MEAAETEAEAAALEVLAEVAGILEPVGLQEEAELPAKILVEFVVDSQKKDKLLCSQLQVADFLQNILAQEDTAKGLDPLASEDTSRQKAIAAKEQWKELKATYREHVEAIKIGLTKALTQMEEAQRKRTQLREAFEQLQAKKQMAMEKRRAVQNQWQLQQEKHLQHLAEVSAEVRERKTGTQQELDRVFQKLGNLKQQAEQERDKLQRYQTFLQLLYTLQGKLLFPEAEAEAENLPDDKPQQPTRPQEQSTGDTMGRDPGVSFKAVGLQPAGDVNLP
# [16] = test system: Zinc finger BED domain-containing protein 1 (human)
# [17] = test system: Zinc finger CCCH domain-containing protein 7A (human)
# [18] = test system: Zinc finger and SCAN domain-containing protein 2 (human)
# [19] = test system: Zinc finger protein 655 (human)
# [20] = test system: Zinc finger protein ZXDC (human)
sequence,measurement,setting,value
GGGGACAGGGGTATGGGGAGGGG [G4-3 biotinylated (CtG)],binding signal,[1],-0.333 z-score
same,binding signal,[2],-0.328 z-score
same,binding signal,[3],3.23 z-score
same,binding signal,[4],-0.328 z-score
same,binding signal,[5],-0.339 z-score
same,binding signal,[6],-0.333 z-score
same,binding signal,[7],-0.325 z-score
same,binding signal,[8],-0.338 z-score
same,binding signal,[9],-0.323 z-score
same,binding signal,[10],-0.331 z-score
same,binding signal,[11],-0.326 z-score
same,binding signal,[12],-0.324 z-score
same,binding signal,[13],-0.279 z-score
same,binding signal,[14],-0.338 z-score
same,binding signal,[15],-0.338 z-score
same,binding signal,[16],-0.341 z-score
same,binding signal,[17],-0.314 z-score
same,binding signal,[18],-0.327 z-score
same,binding signal,[19],-0.32 z-score
same,binding signal,[20],-0.312 z-score

# Part of the list above, set out differently.
sequence	measurement	setting	value
GGGGACAGGGGTATGGGGAGGGG [G4-3 biotinylated (CtG)]	binding signal	[19]	-0.32 z-score
same	binding signal	[20]	-0.312 z-score
